Measurements as given in PubChem BioAssay AID1487 (National Center for Advancing Translational Sciences (NCATS), 2009).
“And” between values parts separate entries of the source, which are not always exact repeats. Equal entries are not always repeated. This is one part of the list. Shown are side measurements of this screen, not its main read-out; they come without a call. The list favours compounds with an active or inconclusive main result. Potencies come from curve fits of mixed quality, noted in brackets.

Assay: qHTS Assay for Modulators of Lamin A Splicing
Settings: HeLa LMNA splicing GFP/RFP minigene ratio, 48 h
In short: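 Read-out is the ratio of GFP to DsRed2 object intensity, acquired by 488 nm laser-scanning cytometry on HeLa lamin A-EGFP minigene reporter cells. Compound incubation 48 hrs at 37 °C in Opti-MEM with 2% FBS; DMSO 0.5% final.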

[1] = measured here: RFP viability control channel
[2] = measured here: GFP splicing reporter channel

Compound	AC50 [1]	AC50 [2]
O=c1cccc2n1CC1CC2CN(Cc2cccc(Cl)c2Cl)C1 (stereo not drawn)	11.2 µM [rising, partial curve]	–
CN1C(=O)CCS(=O)(=O)[C@@H]1c1ccc(Cl)cc1	–	0.447 µM [falling, full curve]
CC(C)C(=O)Nc1ccc(S(=O)(=O)N2CC3CC(C2)c2cccc(=O)n2C3)cc1 (stereo not drawn)	0.316 µM [falling, full curve, poor fit]	0.0398 µM [falling, full curve, poor fit]
Cc1ccc2c(c1)C1CN(C)CCC1N2S(=O)(=O)c1ccccc1 (stereo not drawn)	–	5.62 µM [rising, single point]
Oc1ccc(C2NCc3ccccc3-n3cccc32)cc1Cl (stereo not drawn)	11.2 µM [rising, single point]	–
O=C(Nc1ccon1)c1cccn(Cc2cccc(Cl)c2)c1=O	–	1.41 µM [falling, full curve]
CC(C)CCCC(C)C1CCC2C3CC(O)[C@@]4(O)CC(O)CC[C@@]4(C)C3CC[C@@]12C (stereo partly drawn)	12.6 µM [falling, partial curve]	12.6 µM [falling, partial curve]
CCOC(=O)C(O)(c1ccc(NC(=S)NC(=O)c2ccc(Cl)cc2Cl)c(C)c1)C(F)(F)F (stereo not drawn)	8.91 µM [rising, partial curve]	7.94 µM [rising, partial curve]
CC(=O)Nc1ccc(OC(=O)N(C)C)cc1	–	11.2 µM [rising, single point]
CCn1cnc2c(Nc3cccc(Cl)c3)nc(N[C@@H]3CCCC[C@@H]3N)nc21	2.82 µM [falling, full curve]	3.16 µM [falling, full curve]
CCOC(=O)c1cccc(NS(=O)(=O)c2ccc(NC(C)=O)cc2)c1	5.01 µM [rising, partial curve]	–
CC[C@]1(c2cccc(O)c2)CCCCN(C)C1	–	1.26 µM [falling, single point]
CC1OC(C)OC(C)O1 (stereo not drawn)	10 µM [falling, partial curve]	0.631 µM [falling, full curve, poor fit]
C=CCN1C(=O)/C(=C/c2cccs2)C(=O)NC1=S	–	2.82 µM [falling, partial curve, poor fit]
CCn1c(O)c(/C=N/N2CCOCC2)c(=O)n(CC)c1=S	35.5 µM [rising, single point]	35.5 µM [rising, single point]
CCCOP(=O)(OCCC)C(Nc1ccc(C(C)C)cc1)c1ccc([N+](=O)[O-])cc1 (stereo not drawn)	11.2 µM [rising, partial curve]	–
COc1cc(-c2ccc(=O)[nH]n2)ccc1OC(F)F	35.5 nM [falling, full curve, poor fit] and 1 µM [falling, full curve] and 631 nM [falling, full curve]	11.2 nM [falling, full curve] and 1.41 µM [rising, partial curve] and 891 nM [falling, full curve]
CCC(=NCCC(c1ccccc1)c1ccccc1)c1c(O)n(C)c(=O)n(C)c1=O	0.355 µM [rising, partial curve]	–
CCCCCCCCCC[N+](C)(C)CCCCCCCCCC	–	0.00562 µM [falling, full curve, poor fit]
c1ccc2c(CCNCc3ccc4c(c3)OCO4)c[nH]c2c1	10 µM [rising, partial curve, poor fit]	–
CCOc1ccc(NC(=O)C(=S)NC2CCCCC2)cc1	35.5 µM [falling, single point]	–
O=C(c1cc2c(s1)CCCC2)N1CCC2(CC1)OCCO2	–	1.41 µM [rising, full curve, poor fit]
COc1cc(C)c(CN2CCN(c3ccccc3)CC2)cc1C	12.6 µM [rising, single point]	–
NCCc1c[nH]c2ccc(C(N)=O)cc12	28.2 µM [rising, partial curve, poor fit]	0.00891 µM [rising, full curve, poor fit]
CCOC(=O)c1c(-n2c(C)cc(C=C3C(=O)NC(=O)NC3=O)c2C)sc2c1CCCC2	31.6 µM [falling, single point]	35.5 µM [falling, single point]
Nc1ccc2c3c(cccc13)CC2	20 µM [falling, partial curve, poor fit]	17.8 µM [falling, partial curve, poor fit]
C[C@@]12CCC3C(CCC4=CC(=O)CC[C@]43C)C1CCC2O (stereo partly drawn)	10 µM [falling, partial curve]	22.4 µM [falling, single point]

Whole records, looked up by structure:
CCn1c(O)c(/C=N/N2CCOCC2)c(=O)n(CC)c1=S is listed as AC50 [1]: 35.5 µM [rising, single point]; AC50 [2]: 35.5 µM [rising, single point]
O=c1cccc2n1CC1CC2CN(Cc2cccc(Cl)c2Cl)C1 (stereo not drawn) is listed as AC50 [1]: 11.2 µM [rising, partial curve]
O=C(c1cc2c(s1)CCCC2)N1CCC2(CC1)OCCO2 is listed as AC50 [2]: 1.41 µM [rising, full curve, poor fit]

Further compounds:

Compound	AC50 [1]	AC50 [2]
Cc1ccc(C)c(N2CCN(C(=O)CCS(=O)(=O)c3ccc4c(c3)oc(=O)n4C)CC2)c1	0.01 µM [falling, full curve, poor fit]	–
O=c1oc2ccccc2c(O)c1C(c1ccc([N+](=O)[O-])cc1)c1c(O)c2ccccc2oc1=O	0.316 µM [falling, partial curve, poor fit]	–
CCCCCCCCC(=O)NCc1ccc(O)c(OC)c1	–	5.62 µM [rising, single point]
CC(=O)[C@@H]1CC[C@@H]2[C@@H]3CCC4=CC(=O)CC[C@@]4(C)[C@H]3CC[C@]21C	6.31 µM [falling, partial curve]	7.94 µM [falling, partial curve]
CC(NC(=O)Cc1cccc2ccccc12)C(=O)N1CCC(=O)CC1 (stereo not drawn)	20 µM [rising, partial curve, poor fit]	–
Cc1cc(OC(=O)c2ccco2)c2c3c(c(=O)oc2c1)CCC3	15.8 µM [rising, partial curve]	14.1 µM [rising, single point]
CSC1=NP(=S)(SC)N2CCCC2=C1C#N (stereo not drawn)	35.5 µM [rising, single point]	–
CN1C(=O)C(O)N=C(c2ccccc2)c2cc(Cl)ccc21 (stereo not drawn)	0.282 µM [falling, partial curve]	0.0794 µM [falling, full curve]
CCN1CCN(C(=O)COc2cc(=O)n(CC)c3ccccc23)CC1	11.2 µM [rising, partial curve, poor fit]	–
CCC(C(N)=O)N1CCCC1=O (stereo not drawn)	35.5 µM [falling, single point]	6.31 µM [falling, single point]
Cc1ccccc1NC1=NCC(C)S1 (stereo not drawn)	15.8 µM [rising, single point]	–
NC(C(=O)O)c1cc(=O)[nH]o1 (stereo not drawn)	6.31 µM [falling, partial curve, poor fit]	–
CCCn1c(C(=O)c2ccc(OC)cc2)nc2ccccc21	0.282 µM [falling, full curve, poor fit]	0.398 µM [falling, full curve, poor fit]
O=C(/C=C/c1ccccc1)C1C(=O)c2ccccc2C1=O	4.47 µM [rising, partial curve, poor fit]	–
O=C(c1cccc(Cl)c1)C1CCCN(Cc2ccon2)C1 (stereo not drawn)	3.55 µM [falling, full curve]	6.31 µM [falling, partial curve, poor fit]
CC(=O)NCCc1c[nH]c2ccccc12	5.62 µM [falling, single point]	–
C[C@@H]1O[C@@H](O[C@H]2C[C@@H](O)[C@@]3(CO)[C@H]4[C@H](O)C[C@]5(C)[C@@H](C6=CC(=O)OC6)CC[C@]5(O)[C@H]4CC[C@@]3(O)C2)[C@@H](O)[C@H](O)[C@H]1O	5.62 µM [rising, partial curve, poor fit]	0.398 µM [falling, full curve]
CCCCCCCCCCCC[N+](C)(C)CCOc1ccccc1	35.5 µM [rising, single point]	31.6 µM [rising, single point]
CCCCC/C=C\C/C=C\C/C=C\C/C=C\CCCC(=O)O	15.8 µM [falling, partial curve]	12.6 µM [falling, partial curve]
O=C(Nc1nc2c(s1)CCCCCC2)Nc1ccc(F)cc1F	25.1 µM [falling, partial curve, poor fit]	0.02 µM [falling, full curve, poor fit]
CCC(=NCCC(c1ccccc1)c1ccccc1)c1c(O)[nH]c(=O)[nH]c1=O	20 µM [rising, single point]	–
COc1ccc(/C=C/c2cc(O)cc(O)c2)cc1	11.2 µM [falling, partial curve]	12.6 µM [falling, partial curve]
CC(C)C[C@H]1C(=O)N2CCC[C@H]2[C@]2(O)O[C@](NC(=O)[C@@H]3C=C4c5cccc6[nH]c(Br)c(c56)CC4N(C)C3)(C(C)C)C(=O)N12 (stereo partly drawn)	0.794 µM [falling, full curve, poor fit]	35.5 µM [rising, single point]
CC(=O)Nc1cc([As](=O)(O)O)ccc1O	5.62 µM [falling, single point]	–
C=CCOC(Cn1ccnc1)c1ccc(Cl)cc1Cl (stereo not drawn)	12.6 µM [rising, partial curve, poor fit]	12.6 µM [rising, single point]
Brc1ccc2c(c1)C(OC1CN3CCC1CC3)c1ccccc1CS2 (stereo not drawn)	31.6 µM [rising, single point]	35.5 µM [rising, single point]
